Assay: Corrosivity on stainless steel plates
Conditions: partially or wholly immersed, as-is or diluted with water; up to 6 months of monitoring

Compound | Corrosivity on stainless steel plates
CC(=O)OO [Peracetic acid, peracetic acid] | No corrosivity issues were observed
CCC(=O)OO [Perpropionic acid, perpropionic acid] | No corrosivity issues were observed

— patent US20250008983A1, “COMPOSITIONS CONTAINING PEROXYACIDS TO CONTROL PATHOGEN GROWTH IN ANIMAL FEED AND RELATED METHODS” (KEMIN INDUSTRIES, INC., priority 2023, published 2025)
